Tested on: Raf-1/14-3-3 interaction
Assay: Kinase inhibition of FBS-stimulated Raf-1/14-3-3 interaction in U2OS cells
Assay type: cell-based
Details: Figure 4d
Experimental: Cells were cultured overnight.
The LinkLight cells were cultured in a white 384-well plate overnight. The culture medium was then replaced with serum-free DMEM. Serial dilutions of kinase inhibitors were added to cells for 15 min, followed by agonist stimulation for 240 min and then by the luciferase assay as described above. For Raf-1/14-3-3 kinase inhibition assays, cells were preincubated with a kinase inhibitor (or two inhibitors at equal concentrations) for 15 min, followed by stimulation with 7.5% FBS for 180 min and then by the luciferase assay as described above.

For CN[C@@H]1C[C@H]2O[C@@](C)([C@@H]1OC)n1c3ccccc3c3c4c(c5c6ccccc6n2c5c31)C(=O)NC4 [staurosporine], the “inhibition of FBS-stimulated Raf-1/14-3-3 interaction signals” value (7.5% FBS stimulation) was “blocked” and the “inhibition of FBS-stimulated Raf-1/14-3-3 interaction signals at high concentrations” value (high concentrations) was “suppressed the Raf-1/14-3-3 signals below the baseline signal”.
